{"source": "PubChem BioAssay AID1508588 | Peter MacCallum Cancer Centre, 2020", "test": "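Genome-wide search for knock-downs that heighten vemurafenib action in melanoma cells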 (primary screen)", "system": "human WM266.4 melanoma cells (BRAF V600 mutant)", "knock-down reagent": "siRNA pool against human genes, 40 nM", "timing": "96 h from transfection to read-out", "challenge": "vemurafenib 300 nM (about IC25), added 48 h after transfection, for 48 h; comparison arm got DMSO vehicle only", "measurement": "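Cell gain (DAPI nuclei at end minus before drug, mean of two replicates) and medium lactate by absorbance per cell, both as ratio to non-targeting siRNA, also grouped into fold-change classes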", "reading the numbers": "cell gain with vemurafenib: higher = more cell gain than with non-targeting siRNA; lactate per cell with vemurafenib: higher = more lactate made per cell", "rule for the call": "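Enhancement is called by pairing each knock-down's vehicle-arm and drug-arm fold-change classes for viability or glycolysis; which class combinations qualify is not given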", "calls": "active = enhances vemurafenib effect; inactive = no enhancement seen", "note": "This is one part, drawn at random, of about 18,000 deposited reagents. Over the whole deposit, 790 (4.4%) were called active. 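Calls rest on a combination of fold-change classes in drug and vehicle arms, not all shown here.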 Some reagents were tested in more than one well and are listed for each. No sequences are given here."}
{"gene": "POTED", "cell gain with vemurafenib": 0.79, "lactate per cell with vemurafenib": 0.49, "Outcome": "inactive"}
{"gene": "PRR18", "cell gain with vemurafenib": 0.75, "lactate per cell with vemurafenib": 0.65, "Outcome": "inactive"}
{"gene": "NBPF14", "cell gain with vemurafenib": 0.55, "lactate per cell with vemurafenib": 1.54, "Outcome": "inactive"}
{"gene": "TCEAL8", "cell gain with vemurafenib": 0.63, "lactate per cell with vemurafenib": 0.46, "Outcome": "active"}
{"gene": "WDR6", "cell gain with vemurafenib": 0.6, "lactate per cell with vemurafenib": 0.44, "Outcome": "inactive"}
{"gene": "GHSR", "cell gain with vemurafenib": -0.02, "lactate per cell with vemurafenib": 1.15, "Outcome": "inactive"}
{"gene": "SH3GL3", "cell gain with vemurafenib": 0.46, "lactate per cell with vemurafenib": 1.32, "Outcome": "inactive"}
{"gene": "NEK10", "cell gain with vemurafenib": 0.68, "lactate per cell with vemurafenib": 0.79, "Outcome": "inactive"}
{"gene": "UBOX5", "cell gain with vemurafenib": 0.72, "lactate per cell with vemurafenib": 0.43, "Outcome": "inactive"}

Entries above whose target name starts with P or p (2):
{"gene": "POTED", "cell gain with vemurafenib": 0.79, "lactate per cell with vemurafenib": 0.49, "Outcome": "inactive"}
{"gene": "PRR18", "cell gain with vemurafenib": 0.75, "lactate per cell with vemurafenib": 0.65, "Outcome": "inactive"}

The results go on.
{"gene": "KIF9", "cell gain with vemurafenib": 0.48, "lactate per cell with vemurafenib": 1.08, "Outcome": "inactive"}
{"gene": "HCLS1", "cell gain with vemurafenib": 0.81, "lactate per cell with vemurafenib": 0.7, "Outcome": "inactive"}
{"gene": "RNF150", "cell gain with vemurafenib": 0.98, "lactate per cell with vemurafenib": 0.74, "Outcome": "inactive"}
{"gene": "RNF150", "cell gain with vemurafenib": 0.97, "lactate per cell with vemurafenib": 0.96, "Outcome": "inactive"}
{"gene": "AIRE", "cell gain with vemurafenib": 0.6, "lactate per cell with vemurafenib": 1.23, "Outcome": "inactive"}
{"gene": "BUD13", "cell gain with vemurafenib": 0.7, "lactate per cell with vemurafenib": 1.29, "Outcome": "inactive"}
{"gene": "GLS2", "cell gain with vemurafenib": 0.58, "lactate per cell with vemurafenib": 0.88, "Outcome": "inactive"}
